Data as given in patent US10808128B2, “Compounds as fluorescent probes, synthesis and applications thereof” (priority 2018, dated 2020).

Assays:
[1] = Effect of solvent viscosity on steady state fluorescence (water, glycerol, ethylene glycol-glycerol mixtures); type: physicochemical; conditions: log-log fit of fluorescence intensity versus viscosity, ~0.6 for a perfect rotor
[2] = HC-1 fluorescence in surfactant micelles (SDS, TritonX-100); CMC by sigmoidal fitting; type: physicochemical
Description: Initially 300 mM solution of sodium dodecyl sulfate (SDS) in milli-Q water was prepared. Then, solution of varied concentrations (1-300 mM) by serial dilution was prepared. All the prepared solutions were heated at 70° C. for about 15 minutes and stored at room temperature overnight. Similarly, a stock of 10 mM was prepared for TritonX-100 also. Then solution of different concentration (0.05-4 mM) was prepared by serial dilution.

CN(C)c1ccc(/C=C/C2=[N+](C)c3ccc4ccccc4c3C2(C)C)cc1.[I-] [HC-1, (E)-2-(4-(Dimethylamino)styryl)-1,1,3-trimethyl-1H-benzo[e]indol-3-ium iodide]
Förster-Hoffmann slope B value [1]: ~0.46 | fluorescence enhancement of HC-1 associated with micelle formation ([2]; SDS micelles): ~3 fold | fluorescence enhancement of HC-1 associated with micelle formation ([2]; TritonX-100 micelles): ~7 fold
